From PubChem BioAssay AID493014 (National Center for Advancing Translational Sciences (NCATS), 2011)
The other results are listed elsewhere or left out. Further columns of the screen follow, without active or inactive calls. The list favours compounds with an active or inconclusive main result. The note in brackets gives the kind of curve behind each potency; many fits are weak.

Assay: qHTS Assay to Find Inhibitors of Chronic Active B-Cell Receptor Signaling
Conditions: ABC-DLBCL IkBa-CBG/CBR reporter, luminescence ratio (green luciferase fused to IkBa over red control in TMD8 lymphoma cells), 4 h
How it was run: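 TMD8 ABC-DLBCL cells carrying doxycycline-inducible green luciferase fused to IkappaBalpha plus unfused red luciferase were exposed to compounds (up to 46 uM) for 4 hrs at 37C. Activity came from the overlap-corrected green/red luminescence ratio.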

[1] = measured here: CBR red luminescence, cell number
[2] = measured here: IkBa-CBG green luminescence

SMILES | AC50 [1] | AC50 [2]
COc1cc(NC(=O)Cn2cnc3c(SC)nc(N)nc32)cc(OC)c1OC | 1.03 µM [falling, single point] | 
NNc1ccc(Cc2ccc(Cl)cc2Cl)nn1 | 35.5 µM [rising, single point] | 
Cc1sc2ncnc(SCC(=O)NC(=O)NCc3ccco3)c2c1C | 35.5 µM [rising, single point] | 
O=C(Nc1ccccc1C(=O)Nc1ccc2c(c1)OCO2)c1cccs1 | 9.2 µM [falling, partial curve, poor fit] | 
Cc1cc(C)n2nc(CC(=O)NC3CCCCCCC3)nc2n1 | 28.2 µM [falling, single point] | 
CC(=O)/C(=N/Nc1cccc(Cl)c1)N1CCOCC1 | 29.1 µM [falling, single point] | 
O=C(N/N=C/c1ccccn1)c1ccc(NC(=O)c2ccccc2Cl)cc1 | 11.2 µM [falling, partial curve, poor fit] | 12.6 µM [rising, partial curve, poor fit]
CCc1nc2ccc(C(=O)Nc3cccc(C(C)=O)c3)cc2nc1CC |  | 3.66 µM [rising, full curve, poor fit]
CCOC(=O)c1cn2nc(Oc3cccc(C(F)(F)F)c3)ccc2n1 | 14.1 µM [falling, single point] | 
O=C(O)c1ccc(/C=N/NC(=O)c2ccc(Br)cc2)cc1 | 29.1 µM [falling, single point] | 
CC(C)[C@H](NC(=O)c1ccccc1)C(=O)OCC(=O)/C=C1/N(C)c2ccccc2C1(C)C | 32.6 µM [falling, single point] | 
COc1ccc(C2OC(=O)CC2C(=O)NCc2ccc(F)cc2)cc1OC (stereo unspecified) | 35.5 µM [falling, single point] | 
COc1ccccc1NC(=O)CSc1nnc(Cc2cccn2C)n1-c1ccc(F)cc1 | 16.4 µM [falling, single point] | 
Cc1ccc(C(=O)/C=C\C(=O)c2ccc(C)cc2)cc1 | 10.3 µM [falling, partial curve, poor fit] | 
CC(/C=N/N1CCN(c2ccccn2)CC1)=C\c1ccccc1 | 8.2 µM [rising, partial curve, poor fit] | 
COc1cccc(N2C(=O)[C@H]3C(C(=O)c4cnccn4)=NN[C@H]3C2=O)c1 | 1.26 µM [falling, full curve, poor fit] | 
COc1ccc(-c2cccc(-c3cc(=O)oc4cc(OC)c(OC)c(OC)c34)c2)cc1 | 11.6 µM [rising, partial curve, poor fit] | 
Cc1ccc(SCc2nc3ccccc3n2CC(=O)Nc2ccccc2)cc1 | 7.94 µM [falling, partial curve] | 
Cc1cccc(C)c1OCC(=O)Nc1ccc(N2CCOCC2)cc1 | 15.8 µM [rising, single point] | 
COc1ccc(C2=Nn3c(nnc3-c3ccccc3F)SC2)cc1OCC1CC1 |  | 10.3 µM [falling, partial curve]
Cc1ccc(-c2nc3ncccc3o2)cc1NC(=O)c1cccnc1 | 2.82 µM [falling, single point] | 

No new results follow: an excerpt of the list.
SMILES | AC50 [1] | AC50 [2]
O=C(Nc1ccccc1C(=O)Nc1ccc2c(c1)OCO2)c1cccs1 | 9.2 µM [falling, partial curve, poor fit] | 
Cc1cc(C)n2nc(CC(=O)NC3CCCCCCC3)nc2n1 | 28.2 µM [falling, single point] | 

Some of the entries so far, field by field.
COc1ccc(-c2cccc(-c3cc(=O)oc4cc(OC)c(OC)c(OC)c34)c2)cc1
  AC50 [1]: 11.6 µM [rising, partial curve, poor fit]
Cc1ccc(-c2nc3ncccc3o2)cc1NC(=O)c1cccnc1
  AC50 [1]: 2.82 µM [falling, single point]

Going on with the list:

SMILES | AC50 [1] | AC50 [2]
c1ccc2c(c1)oc1c(Nc3ccc4c(c3)OCO4)ncnc12 | 3.98 µM [falling, full curve, poor fit] | 
COc1ccc(C(=O)NNC(=O)c2ccccn2)cc1 | 0.326 µM [falling, full curve] | 
C/C(CC(=O)NC1CCCCC1)=N\NC(=O)c1ccccc1C | 11.2 µM [falling, partial curve, poor fit] | 
Cc1ccc(NC(=O)CSc2nc3n[nH]c(C)c3c(=N)n2-c2ccccc2C)cc1C | 2.51 µM [rising, partial curve, poor fit] | 
CCS(=O)(=O)N1CCC(C(=O)NCCc2ccc(C)cc2)CC1 | 4.11 µM [falling, single point] | 2.91 µM [rising, partial curve, poor fit]
Cc1c(Cl)ccc2c1NC(=O)C21NC(CCC(N)=O)[C@H]2C(=O)N(c3ccc(Cl)cc3)C(=O)[C@H]21 (stereo partly specified) | 35.5 µM [falling, single point] | 
COC(CN(C(=O)CCl)C(C(=O)NC1CCCCC1)c1ccccc1C)OC (stereo unspecified) | 2.31 µM [falling, partial curve, poor fit] | 
c1ccc(-c2ccccc2OCCCCN2CCCCC2)cc1 | 29.1 µM [falling, single point] | 
O=C(Nc1ccc2ncccc2c1)c1ccccc1Br | 12.6 µM [falling, single point] | 
CCC(=O)Nc1ccc(Cl)c(NC(=O)c2cccnc2)c1 | 0.651 µM [rising, partial curve, poor fit] | 
COc1cc(/C=C/C(=O)c2ccc(F)cc2)cc(OC)c1OC | 10 µM [falling, partial curve] | 
COc1cccc(C(=O)NCCSCc2c(F)cccc2Cl)c1 | 15.8 µM [falling, partial curve, poor fit] | 
CCOc1ccc(S(=O)(=O)N(CC(=O)O)c2ccc(C)cc2)cc1 | 0.103 µM [rising, full curve, poor fit] | 
COc1cc(-c2nnn(CC(=O)NC3CCS(=O)(=O)C3)n2)ccc1OCc1ccccc1 (stereo unspecified) | 35.5 µM [falling, single point] | 
O=C1NN=C(c2ccc(Cl)cc2)CC1c1cccc(Cl)c1 (stereo unspecified) | 16.4 µM [falling, partial curve] | 
Brc1ccc(OCCCOc2cccc3cccnc23)cc1 | 2.82 µM [rising, partial curve, poor fit] | 
O=C(COC(=O)c1ncc(Cl)c(Cl)c1Cl)Nc1ccccc1OC(F)F | 29.1 µM [falling, single point] | 
O=C(NCCc1ccccc1F)N[C@@H](Cc1ccccc1)C(=O)O | 35.5 µM [rising, single point] | 
CCc1ccc2oc(-c3cc(N)cc(C)c3O)nc2c1 | 29.1 µM [falling, single point] | 
CCN(CC)c1ccc(/C=N/n2c(C)cc(C)cc2=O)cc1 | 6.31 µM [rising, single point] | 
c1ccc(-c2nc3cc4ccccc4cc3[nH]2)nc1 | 4.61 µM [falling, full curve] | 

SMILES | AC50 [1] | AC50 [2]
COc1ccc(S(=O)(=O)CCC(=O)Nc2c(C)n(C)n(-c3ccccc3)c2=O)cc1 | 3.66 µM [rising, partial curve, poor fit] | 
CCOc1ccccc1/C=N/NC(=O)c1cccc(Cl)c1 | 3.26 µM [rising, partial curve] | 
O=C(Nc1ccc(-c2nnc3n2CCCCC3)cc1)c1cc2ccccc2o1 | 20.6 µM [falling, single point] | 
CC1=CC(C)(C)N=C(NC#N)N1 | 13 µM [rising, partial curve, poor fit] | 
Clc1ccccc1-c1csc(Nc2cccnc2)n1 | 2 µM [rising, full curve] | 
CCC(=O)NC(Nc1c(C)n(C)n(-c2ccccc2)c1=O)C(Cl)(Cl)Cl (stereo unspecified) | 0.708 µM [rising, full curve, poor fit] | 
CC(Oc1ccc(Cl)cc1Cl)C(=O)/C=C/N(C)C (stereo unspecified) | 15.8 µM [rising, single point] | 
Cc1c(N2C(=O)C(=O)/C(=C(/O)c3ccc(Cl)cc3)C2c2ccccc2)c(=O)n(-c2ccccc2)n1C (stereo unspecified) | 6.51 µM [rising, single point] | 
CCc1nc(SCc2ccc(OCC(C)C)cc2)n[nH]1 | 3.16 µM [rising, partial curve, poor fit] | 
CS(=O)(=O)N(CC(=O)Nc1ccccc1C(=O)NCCc1ccccc1)c1ccc2c(c1)OCCO2 | 6.51 µM [rising, single point] | 
O=C(/C=C/c1cc([N+](=O)[O-])ccc1OC(F)F)Nc1cccc([N+](=O)[O-])c1 | 35.5 µM [rising, single point] | 
CCOc1ccccc1NC(=O)CN1c2cccc3cccc(c23)S1(=O)=O | 4.11 µM [falling, full curve] | 20.6 µM [falling, partial curve, poor fit]
O=C(CCCN1C(=O)/C(=C/c2ccc(F)cc2)SC1=S)NC1CCS(=O)(=O)C1 (stereo unspecified) | 3.98 µM [falling, partial curve] | 
CC1CCCC(C)N1/N=C/c1ccc(C#N)cc1 (stereo unspecified) | 15.8 µM [rising, single point] | 
COc1ccc(NC(=O)c2nc3nc(C)cc(C(F)F)n3n2)cc1OC | 16.4 µM [rising, partial curve, poor fit] | 
CS(=O)(=O)NCc1ccc(C(=O)NCc2ccccc2)cc1 | 0.13 µM [rising, full curve, poor fit] | 
Cc1ccc(NC(=O)COC(=O)CNC(=O)c2cccc([N+](=O)[O-])c2)cc1S(=O)(=O)N1CCCCCC1 | 29.1 µM [rising, partial curve, poor fit] | 
O=[N+]([O-])c1ccccc1Nc1nc(-c2cccnc2)cs1 |  | 10 µM [falling, partial curve, poor fit]
O=C(Nc1ccc(-c2nc3cccnc3s2)cc1)c1ccco1 | 0.206 µM [rising, full curve, poor fit] | 
CCOC(=O)C1=C(COC(=O)c2ccc(OC)c(OC)c2OC)NC(=O)NC1C (stereo unspecified) | 25.9 µM [falling, single point] | 
CCCCn1c(N)c(N(CC(C)C)C(=O)C2CCN(S(=O)(=O)c3ccc(C)cc3C)CC2)c(=O)[nH]c1=O | 32.6 µM [falling, partial curve, poor fit] | 
